Assay results taken from the supplement of paper PMC3334620.
Whole data set: some 33,000 sequences, median “E-score (-0.5 to 0.5)” near -0.0014, cut for the highest 2% near 0.25. The list shows a part of the results.

Molecular target: T1, Cad1 (UniProt P24813)
T1 sequence: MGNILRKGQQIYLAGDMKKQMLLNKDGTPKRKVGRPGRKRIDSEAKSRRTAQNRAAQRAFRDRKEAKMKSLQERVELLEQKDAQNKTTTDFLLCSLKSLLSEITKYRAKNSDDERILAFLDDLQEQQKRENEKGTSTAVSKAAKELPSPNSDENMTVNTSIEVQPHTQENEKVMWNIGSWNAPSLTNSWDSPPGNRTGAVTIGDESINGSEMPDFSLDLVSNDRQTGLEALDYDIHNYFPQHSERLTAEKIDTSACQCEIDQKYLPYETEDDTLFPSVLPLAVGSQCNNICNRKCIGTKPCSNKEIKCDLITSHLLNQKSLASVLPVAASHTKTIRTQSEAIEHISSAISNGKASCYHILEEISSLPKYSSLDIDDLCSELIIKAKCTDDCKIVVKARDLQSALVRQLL
Assay: PBM E-score (8-mer binding enrichment) (E-score (-0.5 to 0.5)); higher = stronger / more preferred TF binding
Conditions: protein concentration: 100 nM; construct: GST-full length
Summary of the method: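 Yeast transcription factors, full-length or as DNA-binding domains, were expressed with a GST tag using PURExpress in vitro transcription/translation. At about 100-200 nM they were applied to universal all-10-mer Agilent arrays, double-stranded by primer extension on fresh or once-stripped slides. Fluorescent anti-GST detected bound protein, and masliner normalised the scans. E-scores for ungapped eight-base words, pooled with reverse complements, came from the Universal PBM Analysis Suite.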

| Sequence | PBM E-score |
| --- | --- |
| CCTGCCAA | -0.0362 |
| CTATACAC | -0.138 |
| CAATATGC | 0.0235 |
| AGGTTTTA | -0.00118 |
| ATCGCGTC | 0.147 |
| ACTTGACT | 0.0737 |
| CGCTCCTA | -0.0238 |
| CGCCGCAA | 0.179 |
| CGATTGCC | 0.0433 |
| AGTGCACG | 0.152 |
| AAGTGTAT | 0.00198 |
| CTCGATAC | 0.192 |
| AGCAAAAG | -0.0758 |
| CCTAGAAA | -0.048 |
| TACTTAAA | -0.122 |
| CGCAGGAA | -0.107 |
| CCTATCAA | 0.0736 |
| CAGCGGCG | 0.22 |
| CAGGATGA | 0.0644 |
| AACGCTGA | 0.0602 |
| TGTAAAAA | 0.0427 |
| ACTCAGAG | 0.0232 |
| TAGACATA | 0.0751 |
| AGACTCAT | -0.0161 |
| CTAGTATA | -0.138 |

| Sequence | PBM E-score |
| --- | --- |
| AGGGTACT | -0.129 |
| ATCCAGCG | 0.0835 |
| CGCACAAA | 0.186 |
| ACGAACCT | -0.00218 |
| ATTCGGAA | 0.129 |
| GCACCGTA | 0.0597 |
| GGTGCGGA | 0.0558 |
| AATGATGT | 0.0641 |
| GAAGCCTC | -0.247 |
| TGAGTCCA | 0.00836 |
| GCCTTACC | -0.201 |
| AACTACAA | 0.158 |
| AGTTCCGG | 0.00132 |
| AACAGCTT | 0.0251 |
| GGAGTAAA | 0.248 |
| ATCGCGCC | 0.143 |
| AACCATAT | 0.0429 |
| CGGAGCGA | 0.186 |
| GGTTAGGA | -0.256 |
| GCCAAGAA | -0.0623 |
| TCTCAAAA | -0.0312 |
| CAAGTGGC | 0.0487 |
| CACCTGAC | -0.0154 |
| ATAAGCTG | 0.116 |
| ATTCGGGG | 0.0825 |

A second format for part of the listing above:
Sequence,PBM E-score
AACCATAT,0.0429
CGGAGCGA,0.186
GGTTAGGA,-0.256
GCCAAGAA,-0.0623
TCTCAAAA,-0.0312
CAAGTGGC,0.0487

Carrying on.

| Sequence | PBM E-score |
| --- | --- |
| CGGCTCCC | -0.287 |
| CGCGCTTC | 0.0321 |
| CGGGTGTC | 0.0393 |
| CAGCTTTA | 0.00349 |
| AGCGCCTA | -0.0068 |
| AAGACTCC | -0.174 |
| ACTAGCCA | -0.00929 |
| CCAGCTAC | -0.225 |
| CGATCGCC | 0.207 |
| GAAGTACA | -0.0347 |
| CACGCTAC | -0.108 |
| AAAGGAGC | -0.261 |
| TAAGCCCA | -0.0135 |
| AACGTCCC | -0.156 |
| GTGGACAA | 0.143 |
| CGAGTGTC | 0.125 |
| AAGGGTCC | -0.166 |
| CTATTACA | 0.123 |
| GGGTCGGA | -0.176 |
| ACTGGTGG | 0.00404 |
| GAACCTCA | -0.131 |
| ACACGGAG | -0.104 |
| CTCTTTCC | -0.264 |
| CCTACTGA | -0.00291 |
| ATGTAACC | -0.0284 |

Some values from the list.
GAACCTCA | PBM E-score: -0.131
CGCGCTTC | PBM E-score: 0.0321
ATGTAACC | PBM E-score: -0.0284

Next part.

| Sequence | PBM E-score |
| --- | --- |
| CAGACAAC | 0.0003 |
| ACTCGGTG | 0.0449 |
| TGTCAACA | -0.0139 |
| ATAGCCTC | -0.0947 |
| AAACTTGG | -0.0357 |
| GGTCCCGA | -0.173 |
| CGCGCTAC | 0.26 |
| GCCGGATA | 0.123 |
| GGGTTTCA | -0.00024 |
| GAACCTGA | -0.0206 |
| CAGCTTAA | 0.0425 |
| CATCGCAA | -0.118 |
| GGACAACA | 0.176 |
| ACCTTCGA | 0.0781 |
| ACACGACT | -0.0339 |
| TGACAAAA | 0.251 |
| TGCGCCCA | -0.0665 |
| TCACGGGA | 0.145 |
| AGATACAT | 0.0937 |
| AACTGTGA | 0.11 |
| CCCGTCAG | -0.344 |
| GGAAAGTA | -0.0457 |
| ACCCCTCA | -0.222 |
| GCAAGCGC | -0.0234 |
| AAATGAGT | 0.196 |

| Sequence | PBM E-score |
| --- | --- |
| ACGAAAGT | 0.0253 |
| GGACACCC | -0.0975 |
| AAGCGAGC | 0.0347 |
| TGGACCCA | -0.133 |
| AACCAATC | 0.0878 |
| ATACATAG | 0.131 |
| CATGACAG | 0.103 |
| ATAAGAGA | 0.076 |
| GTGAAATA | 0.0377 |
| AACTTCAA | 0.0814 |
| ATAAAACC | 0.116 |
| CTACGCGA | 0.0451 |
| GAAGACCC | -0.256 |
| TAAATGGA | 0.0699 |
| CCCAAATA | 0.027 |
| CTAATAGC | 0.0948 |
| ATGTCAAG | -0.0353 |
| AAATAGGC | -0.012 |
| AGTATGGG | -0.146 |
| GGAGCCTA | -0.145 |
| CATAAGAA | 0.103 |
| GAGGCGCA | -0.0886 |
| AAGTGCGC | 0.0295 |
| GTATAAAC | 0.112 |
| ATGAAAGG | -0.00648 |

| Sequence | PBM E-score |
| --- | --- |
| GCGAACCA | 0.12 |
| CCACGCAG | 0.0352 |
| ACCATACT | 0.089 |
| CGACTCCC | -0.0265 |
| AATTATAA | 0.276 |
| TACCTTGA | 0.038 |
| TAAGAAGA | 0.164 |
| ATACCGAT | 0.00216 |
| AAAGATGC | -0.0199 |
| CCTACGGC | -0.163 |
| CACGACTG | -0.128 |
| TCGCGGCA | -0.00246 |
| CATTAATC | 0.153 |
| AGGACCAT | -0.217 |
| GGAGGTCA | -0.076 |
| GATCATAA | 0.169 |
| AGTCCTAC | -0.0257 |
| AAACATAC | -0.123 |
| ATGCGATC | 0.0312 |
| TACGGTCA | -0.0762 |
| AGGTTGCG | -0.0319 |
| CGAGCTAC | 0.111 |
| ACCGTTGC | -0.0728 |
| AAATTGCC | 0.151 |
| CCGCGACC | -0.19 |

Some of the entries above in another layout:
ATGCGATC
  PBM E-score = 0.0312
TACGGTCA
  PBM E-score = -0.0762

(list continues)

| Sequence | PBM E-score |
| --- | --- |
| GAGGCTCC | -0.0488 |
| TAAAGTTA | 0.168 |
| AGCTAGAA | -0.196 |
| AGCTGAGA | 0.0757 |
| GGACGACC | -0.152 |
| CAGCAACG | 0.145 |
| AAACGTTC | 0.0399 |
| ATGGCTCC | -0.0559 |
| CCCGGTCG | -0.226 |
| TCCCCCCA | -0.404 |
| CAAATGAA | 0.101 |
| AAAACCCC | -0.297 |
| TCTACACA | 0.0495 |
| GCCTTGAA | -0.151 |
| AATCCTAG | 0.104 |
| ATGCGATA | 0.0659 |
| GCGGTTTA | -0.0547 |
| ATGCGAGG | -0.0354 |
| CCCGCAGA | -0.02 |
| CAAGGGCC | -0.161 |
| ATAGTTTG | 0.0741 |
| AAGTTCCA | -0.0841 |
